According to paper PMC9682758:
These are yes or no findings as the source states them, for the method shown. In cells and extracts the contact can be indirect. Some entries that bind do so weakly or less than the wild type.

Sequences of proteins named here, by UniProt entry; tags and fusion partners are left off.
UniProt Q9CPN8: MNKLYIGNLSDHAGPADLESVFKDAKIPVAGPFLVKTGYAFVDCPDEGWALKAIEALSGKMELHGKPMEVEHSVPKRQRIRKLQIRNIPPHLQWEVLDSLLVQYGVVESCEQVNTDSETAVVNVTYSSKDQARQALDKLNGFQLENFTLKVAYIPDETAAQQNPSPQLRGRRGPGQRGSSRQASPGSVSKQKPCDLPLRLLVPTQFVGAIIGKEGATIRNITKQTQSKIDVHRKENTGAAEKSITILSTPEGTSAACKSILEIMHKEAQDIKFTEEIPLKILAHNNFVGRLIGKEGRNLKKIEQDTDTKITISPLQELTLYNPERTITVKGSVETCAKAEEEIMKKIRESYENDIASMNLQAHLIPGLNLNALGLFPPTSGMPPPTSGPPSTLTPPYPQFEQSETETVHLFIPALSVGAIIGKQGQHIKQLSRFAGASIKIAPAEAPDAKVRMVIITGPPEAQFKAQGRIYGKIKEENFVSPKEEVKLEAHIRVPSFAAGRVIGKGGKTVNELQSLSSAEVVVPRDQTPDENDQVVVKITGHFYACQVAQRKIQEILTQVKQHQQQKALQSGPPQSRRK
UniProt O88477: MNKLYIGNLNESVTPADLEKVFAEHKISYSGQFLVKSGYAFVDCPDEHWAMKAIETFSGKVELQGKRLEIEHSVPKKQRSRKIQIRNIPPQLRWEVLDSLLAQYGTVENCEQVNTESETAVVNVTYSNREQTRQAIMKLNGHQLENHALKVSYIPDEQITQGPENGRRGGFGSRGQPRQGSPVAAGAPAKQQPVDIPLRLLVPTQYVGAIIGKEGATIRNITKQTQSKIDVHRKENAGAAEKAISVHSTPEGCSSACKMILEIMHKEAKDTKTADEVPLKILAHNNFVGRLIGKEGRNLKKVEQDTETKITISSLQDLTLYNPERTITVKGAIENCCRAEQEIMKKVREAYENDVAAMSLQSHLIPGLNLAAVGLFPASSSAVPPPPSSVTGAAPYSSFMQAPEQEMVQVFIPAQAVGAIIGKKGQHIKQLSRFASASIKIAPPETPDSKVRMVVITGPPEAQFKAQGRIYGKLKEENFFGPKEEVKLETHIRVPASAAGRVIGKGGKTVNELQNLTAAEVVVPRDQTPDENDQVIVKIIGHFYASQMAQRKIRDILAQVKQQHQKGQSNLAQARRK
UniProt Q5SF07: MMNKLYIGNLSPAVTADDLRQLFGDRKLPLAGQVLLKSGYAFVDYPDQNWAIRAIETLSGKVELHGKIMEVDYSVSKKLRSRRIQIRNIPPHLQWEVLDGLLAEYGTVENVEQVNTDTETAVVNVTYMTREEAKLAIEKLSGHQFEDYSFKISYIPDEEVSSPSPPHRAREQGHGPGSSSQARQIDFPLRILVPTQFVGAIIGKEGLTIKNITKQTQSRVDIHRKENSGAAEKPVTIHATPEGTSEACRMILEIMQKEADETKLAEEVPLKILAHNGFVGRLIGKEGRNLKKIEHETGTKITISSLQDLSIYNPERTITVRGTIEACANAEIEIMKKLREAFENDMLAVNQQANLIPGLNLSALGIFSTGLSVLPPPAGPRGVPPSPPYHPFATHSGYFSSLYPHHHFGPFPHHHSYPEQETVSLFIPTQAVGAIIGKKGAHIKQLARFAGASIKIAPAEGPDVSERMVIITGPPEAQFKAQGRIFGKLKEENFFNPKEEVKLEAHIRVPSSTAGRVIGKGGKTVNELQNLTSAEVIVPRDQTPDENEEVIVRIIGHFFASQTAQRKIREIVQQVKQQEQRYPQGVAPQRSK

Target: IGF2BP3 (mouse (endogenous in TM4)) (UniProt Q9CPN8)
Assay: co-IP; cells lysed, lysate incubated with primary antibody at 4 °C overnight, Protein A + G beads 1 h at room temperature, washed with 1× TBS, eluted for SDS-PAGE (Beyotime kit P2179S)

Row | Substance | binding
1 | IGF2BP1 (from UniProt O88477 1-577) | binds
2 | IGF2BP2 (from UniProt Q5SF07 1-592) | binds
